Reference: PubChem BioAssay AID1671195 (Yale University, 2021)
Shown is an unselected part of about 22,000 reagents. About 1,510 of all reagents (6.9%) count as active. 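Active includes knockdowns raising or lowering LDL uptake; positive z-scores mean more uptake, negative mean less.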 Unmarked entries are inactive.

Assay: 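Knockdowns that increase or decrease uptake of fluorescent LDL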 (primary screen)
Cells: human Huh7 hepatoma cells
Reagent: siRNA pool against human genes, 18 nM
Duration: about 2 to 2.5 days of knockdown, then 8 h LDL uptake
Treatment: DiI-labelled LDL at 30 µg/ml for 8 h, in lipoprotein-deficient serum medium
Read-out: 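Per-cell DiI-LDL intensity by automated imaging; well means scaled to the plate median and given as a robust z-score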
Reading the numbers: robust z-score: higher = more LDL uptake after knockdown
Call rule: 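a gene counts as active if at least two replicate z-scores exceed ±2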

DNAJC19 [SID442883878]: robust z-score, replicate 1 = 1.49 (active); robust z-score, replicate 2 = 2.78; robust z-score, replicate 3 = 2.34
VAPB [SID442897989]: robust z-score, replicate 1 = -0.376; robust z-score, replicate 2 = -0.619; robust z-score, replicate 3 = -0.349
TFIP11 [SID442885801]: robust z-score, replicate 1 = 1.4; robust z-score, replicate 2 = 1.24; robust z-score, replicate 3 = 1.46
LOC389778 (retired record) [SID442883104]: robust z-score, replicate 1 = 5.91 (active); robust z-score, replicate 2 = 6.33; robust z-score, replicate 3 = 7.6
CCRL2 [SID442897694]: robust z-score, replicate 1 = -0.363; robust z-score, replicate 2 = -0.409; robust z-score, replicate 3 = -0.469
IL1B [SID442900137]: robust z-score, replicate 1 = -0.829; robust z-score, replicate 2 = -0.735; robust z-score, replicate 3 = -0.591
LOC400749 (retired record) [SID442885390]: robust z-score, replicate 1 = 1.52; robust z-score, replicate 2 = 0.958; robust z-score, replicate 3 = 2.12
PCIF1 [SID442891016]: robust z-score, replicate 1 = 0.096; robust z-score, replicate 2 = 0.243; robust z-score, replicate 3 = 0.683
PHAX [SID442904492]: robust z-score, replicate 1 = -1.45; robust z-score, replicate 2 = -2.45; robust z-score, replicate 3 = -1.11
HIKESHI [SID442884071]: robust z-score, replicate 1 = 1.91 (active); robust z-score, replicate 2 = 3.08; robust z-score, replicate 3 = 1.04
ADAMTS20 [SID442884991]: robust z-score, replicate 1 = 1.82; robust z-score, replicate 2 = 1.86; robust z-score, replicate 3 = 1.54
CNOT9 [SID442898943]: robust z-score, replicate 1 = -0.296; robust z-score, replicate 2 = -1.02; robust z-score, replicate 3 = -0.358
H3-3B [SID442891653]: robust z-score, replicate 1 = 0.435; robust z-score, replicate 2 = -0.199; robust z-score, replicate 3 = 0.543
MYCL [SID442902599]: robust z-score, replicate 1 = -1.23; robust z-score, replicate 2 = -1.33; robust z-score, replicate 3 = -0.767
PHOSPHO1 [SID442894110]: robust z-score, replicate 1 = -0.531; robust z-score, replicate 2 = -0.398; robust z-score, replicate 3 = 0.847
GPAM [SID442889492]: robust z-score, replicate 1 = 0.238; robust z-score, replicate 2 = 1.4; robust z-score, replicate 3 = 0.015

Individual results from above.
Value for LOC389778 (retired record) [SID442883104] under “robust z-score, replicate 3”: 7.6 (active)
Entry for VAPB [SID442897989] under “robust z-score, replicate 3”: -0.349
